Test results taken from article doi:10.1101/2020.09.16.299644.
Like-named read-outs stand apart in the source and are kept apart here. Results are given in words; binding and its absence hold for the method and conditions named. Some binding calls cover weakened binding; strength is not graded here.

The chains behind the UniProt entries cited, without tags or fusion partners.
UniProt P05756: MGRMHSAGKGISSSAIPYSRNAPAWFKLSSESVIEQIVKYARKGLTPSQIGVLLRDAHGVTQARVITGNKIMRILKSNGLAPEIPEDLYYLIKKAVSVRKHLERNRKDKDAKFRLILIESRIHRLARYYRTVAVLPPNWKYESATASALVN
UniProt P35194: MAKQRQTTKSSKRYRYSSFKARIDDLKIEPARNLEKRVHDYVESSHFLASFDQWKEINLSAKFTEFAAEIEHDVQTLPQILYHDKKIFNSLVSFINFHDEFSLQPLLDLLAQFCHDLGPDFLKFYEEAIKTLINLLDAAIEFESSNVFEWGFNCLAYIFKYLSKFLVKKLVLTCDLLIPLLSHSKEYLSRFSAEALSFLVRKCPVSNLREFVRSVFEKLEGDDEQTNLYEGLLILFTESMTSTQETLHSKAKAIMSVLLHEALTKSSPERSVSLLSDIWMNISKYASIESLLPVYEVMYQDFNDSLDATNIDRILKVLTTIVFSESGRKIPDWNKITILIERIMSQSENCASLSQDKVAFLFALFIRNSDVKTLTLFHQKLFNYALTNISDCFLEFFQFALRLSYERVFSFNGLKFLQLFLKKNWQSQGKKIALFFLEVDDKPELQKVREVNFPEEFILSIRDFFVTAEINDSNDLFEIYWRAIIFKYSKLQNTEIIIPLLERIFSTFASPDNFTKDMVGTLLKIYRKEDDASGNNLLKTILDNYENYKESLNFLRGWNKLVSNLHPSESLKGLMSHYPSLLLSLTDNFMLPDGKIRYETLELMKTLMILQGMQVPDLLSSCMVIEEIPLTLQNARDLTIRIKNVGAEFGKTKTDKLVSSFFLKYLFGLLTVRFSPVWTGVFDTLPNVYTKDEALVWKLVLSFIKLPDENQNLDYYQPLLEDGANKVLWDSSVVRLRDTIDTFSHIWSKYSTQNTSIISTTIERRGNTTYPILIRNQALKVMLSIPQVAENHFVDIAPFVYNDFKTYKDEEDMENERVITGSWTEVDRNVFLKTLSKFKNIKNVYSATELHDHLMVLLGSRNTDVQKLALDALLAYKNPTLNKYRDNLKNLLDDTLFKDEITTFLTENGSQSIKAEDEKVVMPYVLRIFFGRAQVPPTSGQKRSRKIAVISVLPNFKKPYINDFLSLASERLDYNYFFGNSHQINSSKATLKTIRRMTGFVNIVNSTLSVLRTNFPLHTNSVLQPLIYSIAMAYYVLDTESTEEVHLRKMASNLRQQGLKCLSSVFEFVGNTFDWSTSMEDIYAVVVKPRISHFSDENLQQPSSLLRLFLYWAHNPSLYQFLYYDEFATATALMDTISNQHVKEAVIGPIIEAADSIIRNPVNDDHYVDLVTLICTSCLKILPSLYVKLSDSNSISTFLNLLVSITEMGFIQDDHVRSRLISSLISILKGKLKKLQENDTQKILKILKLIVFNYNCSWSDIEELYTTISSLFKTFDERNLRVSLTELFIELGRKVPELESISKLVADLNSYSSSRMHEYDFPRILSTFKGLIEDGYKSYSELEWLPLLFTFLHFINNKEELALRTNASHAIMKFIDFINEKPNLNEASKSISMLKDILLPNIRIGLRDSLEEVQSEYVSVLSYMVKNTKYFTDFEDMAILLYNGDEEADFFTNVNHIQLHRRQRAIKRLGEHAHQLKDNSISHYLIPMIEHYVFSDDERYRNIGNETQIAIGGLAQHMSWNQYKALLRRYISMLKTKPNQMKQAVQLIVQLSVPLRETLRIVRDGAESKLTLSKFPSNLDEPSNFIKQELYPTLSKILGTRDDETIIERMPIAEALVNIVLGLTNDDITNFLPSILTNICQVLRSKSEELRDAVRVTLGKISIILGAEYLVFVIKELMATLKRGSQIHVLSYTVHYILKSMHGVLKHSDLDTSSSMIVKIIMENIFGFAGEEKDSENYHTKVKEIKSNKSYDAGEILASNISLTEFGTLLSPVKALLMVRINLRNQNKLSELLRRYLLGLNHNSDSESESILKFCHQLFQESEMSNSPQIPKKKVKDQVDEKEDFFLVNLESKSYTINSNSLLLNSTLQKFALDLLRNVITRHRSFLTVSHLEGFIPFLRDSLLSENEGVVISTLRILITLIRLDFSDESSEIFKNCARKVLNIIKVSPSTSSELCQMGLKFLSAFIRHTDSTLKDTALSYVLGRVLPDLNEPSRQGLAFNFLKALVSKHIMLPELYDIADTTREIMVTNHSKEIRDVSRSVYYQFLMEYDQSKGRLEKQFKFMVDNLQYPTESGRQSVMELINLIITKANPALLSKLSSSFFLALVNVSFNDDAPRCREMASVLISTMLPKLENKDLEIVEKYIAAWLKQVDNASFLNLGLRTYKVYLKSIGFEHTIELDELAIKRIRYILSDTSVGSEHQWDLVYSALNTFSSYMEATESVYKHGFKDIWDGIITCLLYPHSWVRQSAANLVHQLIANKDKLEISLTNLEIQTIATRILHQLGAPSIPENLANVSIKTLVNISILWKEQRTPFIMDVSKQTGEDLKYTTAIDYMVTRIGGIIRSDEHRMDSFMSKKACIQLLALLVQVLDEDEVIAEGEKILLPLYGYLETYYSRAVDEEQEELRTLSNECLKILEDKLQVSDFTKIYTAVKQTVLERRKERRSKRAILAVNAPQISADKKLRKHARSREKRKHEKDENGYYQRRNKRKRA
UniProt P25586: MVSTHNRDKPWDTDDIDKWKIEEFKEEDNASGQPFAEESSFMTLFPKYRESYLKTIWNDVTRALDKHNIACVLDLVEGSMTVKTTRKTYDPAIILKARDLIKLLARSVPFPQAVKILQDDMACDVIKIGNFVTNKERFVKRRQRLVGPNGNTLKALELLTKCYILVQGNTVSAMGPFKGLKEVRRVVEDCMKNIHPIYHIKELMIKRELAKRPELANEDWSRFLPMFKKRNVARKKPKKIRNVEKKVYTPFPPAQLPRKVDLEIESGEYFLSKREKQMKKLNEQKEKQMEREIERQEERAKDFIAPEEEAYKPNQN
UniProt P40055: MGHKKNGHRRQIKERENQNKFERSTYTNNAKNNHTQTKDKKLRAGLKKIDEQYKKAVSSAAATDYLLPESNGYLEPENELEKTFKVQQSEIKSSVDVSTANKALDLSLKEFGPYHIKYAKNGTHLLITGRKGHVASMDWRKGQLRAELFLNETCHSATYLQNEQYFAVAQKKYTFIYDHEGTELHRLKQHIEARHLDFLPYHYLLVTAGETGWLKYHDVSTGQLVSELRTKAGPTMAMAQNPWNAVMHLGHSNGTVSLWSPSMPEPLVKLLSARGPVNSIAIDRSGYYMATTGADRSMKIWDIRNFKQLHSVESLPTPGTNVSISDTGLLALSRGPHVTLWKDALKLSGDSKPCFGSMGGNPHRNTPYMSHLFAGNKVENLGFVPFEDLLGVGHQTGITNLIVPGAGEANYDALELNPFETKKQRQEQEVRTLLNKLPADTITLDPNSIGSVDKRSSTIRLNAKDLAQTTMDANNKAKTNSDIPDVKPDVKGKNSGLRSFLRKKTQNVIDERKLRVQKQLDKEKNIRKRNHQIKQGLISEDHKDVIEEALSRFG

Key:
Test in all cases: cryo-EM structure
[1] = biological target: T1, Utp22 (S. cerevisiae (endogenous in strain BY4741)) (UniProt P53254)
T1 sequence: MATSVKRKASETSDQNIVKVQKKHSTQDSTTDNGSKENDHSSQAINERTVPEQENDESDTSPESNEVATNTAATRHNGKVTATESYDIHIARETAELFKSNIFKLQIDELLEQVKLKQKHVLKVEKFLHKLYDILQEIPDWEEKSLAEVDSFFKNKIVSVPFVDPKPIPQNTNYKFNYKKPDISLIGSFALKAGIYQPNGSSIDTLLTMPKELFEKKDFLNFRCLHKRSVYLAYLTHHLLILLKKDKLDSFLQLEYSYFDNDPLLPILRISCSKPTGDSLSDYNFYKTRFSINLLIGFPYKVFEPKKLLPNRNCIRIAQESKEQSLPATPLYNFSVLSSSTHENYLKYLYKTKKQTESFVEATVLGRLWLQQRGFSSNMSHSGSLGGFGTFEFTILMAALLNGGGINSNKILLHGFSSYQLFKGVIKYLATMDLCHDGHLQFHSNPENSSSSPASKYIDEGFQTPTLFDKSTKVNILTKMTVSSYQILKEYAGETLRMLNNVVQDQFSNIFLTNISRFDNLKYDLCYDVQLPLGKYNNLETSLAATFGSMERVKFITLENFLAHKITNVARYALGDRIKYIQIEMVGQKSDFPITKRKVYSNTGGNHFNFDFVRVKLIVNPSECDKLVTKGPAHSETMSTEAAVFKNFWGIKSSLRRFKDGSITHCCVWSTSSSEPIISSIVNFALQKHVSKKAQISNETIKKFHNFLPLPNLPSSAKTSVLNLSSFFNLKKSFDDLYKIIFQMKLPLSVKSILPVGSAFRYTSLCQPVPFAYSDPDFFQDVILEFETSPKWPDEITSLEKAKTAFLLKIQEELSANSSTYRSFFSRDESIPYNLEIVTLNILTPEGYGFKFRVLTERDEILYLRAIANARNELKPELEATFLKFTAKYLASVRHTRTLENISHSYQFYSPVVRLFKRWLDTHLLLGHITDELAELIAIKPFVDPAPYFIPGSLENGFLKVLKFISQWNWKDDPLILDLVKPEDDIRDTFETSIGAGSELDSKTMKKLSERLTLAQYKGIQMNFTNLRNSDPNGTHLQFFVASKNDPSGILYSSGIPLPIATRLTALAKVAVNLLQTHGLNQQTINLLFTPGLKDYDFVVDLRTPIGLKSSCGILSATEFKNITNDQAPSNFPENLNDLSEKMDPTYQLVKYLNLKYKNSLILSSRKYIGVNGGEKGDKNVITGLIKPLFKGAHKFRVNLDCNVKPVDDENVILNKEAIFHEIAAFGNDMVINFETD

[2] = biological target: T2, Rrp7 (S. cerevisiae (endogenous in strain BY4741)) (UniProt P25368)
T2 sequence: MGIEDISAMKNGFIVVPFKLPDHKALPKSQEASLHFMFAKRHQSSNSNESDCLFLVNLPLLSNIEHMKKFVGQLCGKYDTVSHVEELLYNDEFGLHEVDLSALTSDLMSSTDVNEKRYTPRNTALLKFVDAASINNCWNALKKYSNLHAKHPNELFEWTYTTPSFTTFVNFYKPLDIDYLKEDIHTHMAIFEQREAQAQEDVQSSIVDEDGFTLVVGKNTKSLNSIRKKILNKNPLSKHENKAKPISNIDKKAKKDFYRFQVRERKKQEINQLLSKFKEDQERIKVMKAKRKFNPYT

[3] = biological target: T1, Utp22 (S. cerevisiae (endogenous in strain BY4741)); remark: listed apart in the source
[4] = biological target: Rps13 (S. cerevisiae (endogenous in strain BY4741)) (UniProt P05756)
[5] = biological target: Utp20 (S. cerevisiae (endogenous in strain BY4741)) (UniProt P35194)
[6] = biological target: T3, Utp4 (S. cerevisiae (endogenous in strain BY4741)) (UniProt Q06679)
T3 sequence: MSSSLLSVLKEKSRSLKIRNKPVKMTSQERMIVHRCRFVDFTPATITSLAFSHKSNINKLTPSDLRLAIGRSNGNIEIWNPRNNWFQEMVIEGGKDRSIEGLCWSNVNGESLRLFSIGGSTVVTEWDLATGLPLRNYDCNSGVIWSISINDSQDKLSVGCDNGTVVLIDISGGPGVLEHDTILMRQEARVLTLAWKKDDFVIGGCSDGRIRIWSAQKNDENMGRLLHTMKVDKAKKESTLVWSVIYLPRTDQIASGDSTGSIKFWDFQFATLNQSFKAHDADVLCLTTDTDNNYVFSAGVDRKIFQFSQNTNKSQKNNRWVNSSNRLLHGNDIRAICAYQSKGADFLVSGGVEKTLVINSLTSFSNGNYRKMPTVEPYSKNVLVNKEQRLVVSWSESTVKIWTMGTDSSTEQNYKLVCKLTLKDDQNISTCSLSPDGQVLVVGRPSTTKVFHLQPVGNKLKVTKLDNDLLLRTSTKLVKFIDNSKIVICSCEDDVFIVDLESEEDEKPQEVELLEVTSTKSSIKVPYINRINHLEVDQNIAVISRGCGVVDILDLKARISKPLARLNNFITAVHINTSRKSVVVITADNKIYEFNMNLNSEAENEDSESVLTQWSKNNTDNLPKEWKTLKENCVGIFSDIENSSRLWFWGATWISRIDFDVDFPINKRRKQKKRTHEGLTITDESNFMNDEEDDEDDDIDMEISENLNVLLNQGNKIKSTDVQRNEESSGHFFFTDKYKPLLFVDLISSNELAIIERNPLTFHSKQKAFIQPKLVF

[7] = biological target: Krr1 (S. cerevisiae (endogenous in strain BY4741)) (UniProt P25586)

## Utp7 (from UniProt P40055 1-554)
[1]
  binding: binds
[2]
  binding: binds

B1: Rrp7 (protein, UniProt P25368 1-297)
chain: MGIEDISAMKNGFIVVPFKLPDHKALPKSQEASLHFMFAKRHQSSNSNESDCLFLVNLPLLSNIEHMKKFVGQLCGKYDTVSHVEELLYNDEFGLHEVDLSALTSDLMSSTDVNEKRYTPRNTALLKFVDAASINNCWNALKKYSNLHAKHPNELFEWTYTTPSFTTFVNFYKPLDIDYLKEDIHTHMAIFEQREAQAQEDVQSSIVDEDGFTLVVGKNTKSLNSIRKKILNKNPLSKHENKAKPISNIDKKAKKDFYRFQVRERKKQEINQLLSKFKEDQERIKVMKAKRKFNPYT
[3]
  binding: binds
[4]
  binding: binds

B2: Utp14 (protein, UniProt Q04500 1-899)
chain: MAKKKSKSRSKSSRRVLDALQLAEREINGEFDNSSDNDKRHDARRNGTVVNLLKRSKGDTNSDEDDIDSESFEDEELNSDEALGSDDDYDILNSKFSQTIRDKKENANYQEEEDEGGYTSIDEEDLMPLSQVWDMDEKTAQSNGNDDEDASPQLKLQDTDISSESSSSEESESESEDDEEEEDPFDEISEDEEDIELNTITSKLIDETKSKAPKRLDTYGSGEANEYVLPSANAASGASGKLSLTDMMNVIDDRQVIENANLLKGKSSTYEVPLPQRIQQRHDRKAAYEISRQEVSKWNDIVQQNRRADHLIFPLNKPTEHNHASAFTRTQDVPQTELQEKVDQVLQESNLANPEKDSKFEELSTAKMTPEEMRKRTTEMRLMRELMFREERKARRLKKIKSKTYRKIKKKELMKNRELAAVSSDEDNEDHDIARAKERMTLKHKTNSKWAKDMIKHGMTNDAETREEMEEMLRQGERLKAKMLDRNSDDEEDGRVQTLSDVENEEKENIDSEALKSKLGKTGVMNMAFMKNGEAREREANKETLRQLRAVENGDDIKLFESDEEETNGENIQINKGRRIYTPGSLESNKDMNELNDHTRKENKVDESRSLENRLRAKNSGQSKNARTNAEGAIIVEEESDGEPLQDGQNNQQDEEAKDVNPWLANESDEEHTVKKQSSKVNVIDKDSSKNVKAMNKMEKAELKQKKKKKGKSNDDEDLLLTADDSTRLKIVDPYGGSDDEQGDNVFMFKQQDVIAEAFAGDDVVAEFQEEKKRVIDDEDDKEVDTTLPGWGEWAGAGSKPKNKKRKFIKKVKGVVNKDKRRDKNLQNVIINEKVNKKNLKYQSSAVPFPFENREQYERSLRMPIGQEWTSRASHQELIKPRIMTKPGQVIDPLKAPFK
[5]
  binding: binds

B3: Utp5 (protein, UniProt Q04177 1-643)
chain: MDSPVLQSAYDPSGQYLCYVTVALDKQRVGVQPTQRATSSGVDTVWNENFLYLEDSKLKVTCLKWVNLASSDTVAIILGMNNGEIWLYSVLANEVTYKFTTGNSYEIKDIDLMGNQLWCIDSSDAFYQFDLLQFKLLQHFRINNCVQLNKLTIVPAGDSVAQLLVASHSISLIDIEEKKVVMTFPGHVSPVSTLQVITNEFFISGAEGDRFLNVYDIHSGMTKCVLVAESDIKELSHSGQADSIAVTTEDGSLEIFVDPLVSSSTKKRGNKSKKSSKKIQIVSKDGRKVPIYNAFINKDLLNVSWLQNATMPYFKNLQWREIPNEYTVEISLNWNNKNKSADRDLHGKDLASATNYVEGNARVTSGDNFKHVDDAIKSWERELTSLEQEQAKPPQANELLTETFGDKLESSTVARISGKKTNLKGSNLKTATTTGTVTVILSQALQSNDHSLLETVLNNRDERVIRDTIFRLKPALAVILLERLAERIARQTHRQGPLNVWVKWCLIIHGGYLVSIPNLMSTLSSLHSTLKRRSDLLPRLLALDARLDCTINKFKTLNYEAGDIHSSEPVVEEDEDDVEYNEELDDAGLIEDGEESYGSEEEEEGDSDNEEEQKHTSSKQDGRLETEQSDGEEEAGYSDVEME
[6]
  binding: binds

B4: Faf1 (protein, UniProt P40546 1-346)
chain: MTLDDDDYIKQMELQRKAFESQFGSLESMGFEDKTKNIRTEVDTRDSSGDEIDNSDHGSDFKDGTIESSNSSDEDSGNETAEENNQDSKPKTQPKVIRFNGPSDVYVPPSKKTQKLLRSGKTLTQINKKLESTEAKEEKEDETLEAENLQNDLELQQFLRESHLLSAFNNGGSGSTNSGVSLTLQSMGGGNDDGIVYQDDQVIGKARSRTLEMRLNRLSRVNGHQDKINKLEKVPMHIRRGMIDKHVKRIKKYEQEAAEGGIVLSKVKKGQFRKIESTYKKDIERRIGGSIKARDKEKATKRERGLKISSVGRSTRNGLIVSKRDIARISGGERSGKFNGKKKSRR
[7]
  binding: binds
